According to publication PMC13534636:
The exact form of at least one protein or probe is not confirmed. For some assays here: At least one verdict was read from the data and is not stated in words by the source.

Assays:
[1] = tested on: FUS + ETV5 + MEF2A; test: EMSA; conditions: FUS 300 nM, MEF2A 50 nM, ETV5 60-240 nM, smear at lower ETV5 than ETV5 alone; 20 mM HEPES-KOH pH 7.5, 5 mM MgCl2, 50 mM KCl, 10 mM DTT, 10% glycerol; 5 nM probe, 25 min at 25 C; 6% PAGE in 0.5x TBE; commercial protein; label: 5'-FAM on sense strand
[2] = tested on: FUS + ETV1 + MEF2A; test: EMSA; conditions: FUS 300 nM, MEF2A 50 nM, ETV1 120 nM, results similar to ETV5; 20 mM HEPES-KOH pH 7.5, 5 mM MgCl2, 50 mM KCl, 10 mM DTT, 10% glycerol; 5 nM probe, 25 min at 25 C; 6% PAGE in 0.5x TBE; commercial protein; label: 5'-FAM on sense strand

“TTTTAACGGCGTGGTTTGAATGTTGCACTGGGTCCACCTGCCTCTGTCTCCGGCTGCGGGGACGTTCGGA (double strand) [MRPL30 probe (WT)]”: binds [1]; binds [2].
